Data taken from PubChem BioAssay AID743266 (National Center for Advancing Translational Sciences (NCATS), 2014).
Hit rate of the full screen: of about 410,000 compounds, about 310 (0.076%) were called active. The shares of active, inactive and inconclusive entries below differ from those in the screen. The call rests on the fitted dose curve; in most records, active means well fitted activation curve with a large enough effect; inconclusive means small, poorly fitted or top-dose-only effect, or another doubt; inactive means no such curve, though single readings can be large or run the other way. Where the call is inconclusive, the potency comes from a doubtful curve fit.

Sequences of proteins named here, by UniProt entry; tags and fusion partners are left off. A change or cut given only in a name is not applied to a line headed by its entry.
UniProt Q03431: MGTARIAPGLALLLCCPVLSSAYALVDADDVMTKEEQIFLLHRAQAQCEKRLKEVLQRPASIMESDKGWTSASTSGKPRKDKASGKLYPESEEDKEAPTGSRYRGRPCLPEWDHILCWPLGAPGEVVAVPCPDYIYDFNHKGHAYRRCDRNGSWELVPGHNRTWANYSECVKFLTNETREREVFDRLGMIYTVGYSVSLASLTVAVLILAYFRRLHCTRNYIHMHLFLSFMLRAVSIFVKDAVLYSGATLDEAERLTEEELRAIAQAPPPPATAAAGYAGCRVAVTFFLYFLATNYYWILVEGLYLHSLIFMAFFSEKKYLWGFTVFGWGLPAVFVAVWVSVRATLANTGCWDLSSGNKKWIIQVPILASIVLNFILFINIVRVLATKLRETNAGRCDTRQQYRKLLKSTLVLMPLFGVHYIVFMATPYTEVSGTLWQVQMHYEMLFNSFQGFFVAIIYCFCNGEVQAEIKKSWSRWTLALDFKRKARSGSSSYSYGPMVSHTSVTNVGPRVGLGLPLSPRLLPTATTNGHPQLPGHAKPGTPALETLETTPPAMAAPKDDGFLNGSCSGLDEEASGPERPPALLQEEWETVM

molecular target: Parathyroid hormone/parathyroid hormone-related peptide receptor (Homo sapiens) (UniProt Q03431); experiment: qHTS for PTHR1 Agonists: Primary Screen; conditions: HEK293 GP2 PTHR1 cells, GloSensor cAMP luminescence, 1 h; activation: at 115 µM (top of the series) unless noted; series mostly up to 115 µM; further: nearly all actives have a fitted effect of over 55% in size
In short: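 HEK-293-derived GP2 cells expressing PTHR1 and a GloSensor cAMP reporter, 3,000/well, plated overnight, given luciferin plus IBMX (each 0.5 mM as added) for 1 h at 37 °C, then compound for 1 h at 37 °C. Luminescence was read after 15 min at room temperature.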
Potency means the concentration at half of the fitted maximal effect.

Potency, inactive:
Cc1cc(-c2nnc(SCc3ccccn3)o2)no1
Cc1cc(N)n2ncc(-c3ccc(F)cc3)c2n1
COc1ccc(-c2cn(CCC(=O)O)c(-c3ccc(Cl)nc3)n2)cc1
COc1cc2c(cc1OC)C(c1ccc(-c3ccccc3Cl)o1)=NCC2
S=C(NCc1ccco1)Nc1ccc(N2CCOCC2)cc1
Cc1cccnc1C(NC(=O)C1CCN(Cc2ccccc2)CC1)c1ccc(F)cc1 (centres undefined)
CC1=NN(c2ccc(C(=O)OC(C)C)cc2)C(=O)/C1=C\C=C\c1ccco1
CCc1cccc(OCC(=O)Nc2cc(Cl)ccc2-n2cncn2)c1
O=C(/C=C/c1ccc(F)cc1)NC(=S)N1CCOCC1
O=C(COc1cccnc1[N+](=O)[O-])Nc1c(Cl)cccc1Cl
O=C(Nc1cccc(C(=O)N2CCN(c3ccc(F)cc3)CC2)c1)c1nsc2ccccc12
CCOC(=O)c1cnc(SC2CC(=O)N(c3ccccc3)C2=O)nc1N (centres undefined)
O=C(CO/N=C/c1ccccc1)N1c2ccccc2Oc2ccccc21
COc1ccc(/C=N/NC(=O)c2cc(C34CC5CC(CC(C5)C3)C4)[nH]n2)cc1OC
COc1ccc(S(=O)(=O)Nc2ccc(Nc3ccccc3)cc2)cc1

A portion taken from the entries so far, for reference:
Potency, inactive:
COc1cc2c(cc1OC)C(c1ccc(-c3ccccc3Cl)o1)=NCC2
S=C(NCc1ccco1)Nc1ccc(N2CCOCC2)cc1
Cc1cccnc1C(NC(=O)C1CCN(Cc2ccccc2)CC1)c1ccc(F)cc1 (centres undefined)
CC1=NN(c2ccc(C(=O)OC(C)C)cc2)C(=O)/C1=C\C=C\c1ccco1
CCc1cccc(OCC(=O)Nc2cc(Cl)ccc2-n2cncn2)c1
O=C(/C=C/c1ccc(F)cc1)NC(=S)N1CCOCC1
O=C(COc1cccnc1[N+](=O)[O-])Nc1c(Cl)cccc1Cl

Random excerpt: 3 compounds from above
Potency, inactive:
CCc1cccc(OCC(=O)Nc2cc(Cl)ccc2-n2cncn2)c1
COc1cc2c(cc1OC)C(c1ccc(-c3ccccc3Cl)o1)=NCC2
COc1ccc(-c2cn(CCC(=O)O)c(-c3ccc(Cl)nc3)n2)cc1

Next part:

Potency, inconclusive:
O=C(O)c1[nH]c2ccc([N+](=O)[O-])cc2c1-c1ccccc1 100 µM [activator, single point]
CON(C)c1nc(C2CCCCC2)c2cc(C)ccc2n1 17.8 µM [activator, full curve, poor fit]
CC(CC(=O)Nc1ccccc1C(F)(F)F)c1ccccc1 (centres undefined) 44.7 µM [activator, single point]
COc1ccc(F)cc1S(=O)(=O)N1CCCC(C)C1 (centres undefined) 112 µM [activator, partial curve, poor fit]
Cc1cc(C)c(C#N)c(SCc2c(F)cccc2[N+](=O)[O-])n1 79.4 µM [activator, partial curve, poor fit]
C=CCNc1nc(Cl)nc(Nc2ccc(OC)cc2)n1 31.6 µM [activator, single point]
CCOC(=O)NC(Nc1ccc(S(N)(=O)=O)cc1)(C(=O)OCC)C(F)(F)F (centres undefined) 56.2 µM [activator, single point]
COc1ccccc1NC(=O)CSc1nc(-c2cccc(Cl)c2)nc2c1Cc1c(CO)cnc(C)c1O2 39.8 µM [activator, partial curve, poor fit]
CCc1ccccc1NC(=O)COC(=O)c1cn(CC)c2nc(C)ccc2c1=O 2.51 µM [activator, partial curve]
COc1ccc(N2CC(C(=O)Nc3ccccc3-c3nc(-c4ccc(C)cc4)no3)CC2=O)cc1 (centres undefined) 4.47 µM [activator, full curve, poor fit]
Cc1cccc(Cn2cnc3c(N)c(C)c(C)cc32)c1 15.8 µM [activator, partial curve]
CCOC(=O)c1c[nH]c2c(Cl)ccc(Cl)c2c1=O 28.2 µM [activator, single point]
CC(C)CNC(=O)c1ccccc1NC(=O)CN(c1ccc2c(c1)OCCO2)S(C)(=O)=O 3.98 µM [activator, single point]
CC(=O)C1=C(O)C(=O)N(CCCCCC(=O)O)C1c1ccc(N(C)C)cc1 (centres undefined) 56.2 µM [activator, partial curve, poor fit]
NC[C@H](O)c1ccc(O)c(O)c1 31.6 µM [activator, single point]
CC1CN(C)C(C)c2c1oc1ccc(N)cc21 (centres undefined) 44.7 µM [activator, partial curve]
COc1cc2[nH]c(=O)n(Cc3ccc(C(=O)N4CCN(c5cccc(C)c5C)CC4)cc3)c(=O)c2cc1OC 12.6 µM [activator, partial curve, poor fit]
O=C(N/N=C/c1ccc(OCC(=O)N2CCCCC2)cc1)c1ccccc1 35.5 µM [activator, partial curve, poor fit]
CC(=O)c1cc2ccccc2oc1=O 39.8 µM [activator, partial curve, poor fit]
Cc1ccc2nc(C)c(C(=O)NN=C3CCCCCC3)n2c1 28.2 µM [activator, partial curve, poor fit]
O=C(CSc1nc2ncccc2[nH]1)NCc1ccccc1 3.98 µM [activator, full curve, poor fit]
COc1ccc2c(CNCc3cccs3)c(C(=O)O)n(Cc3ccc(F)cc3Cl)c2c1 14.1 µM [activator, partial curve]
Cc1ccccc1C1C(C#N)=C2N=C(N)c3c(sc4c3CCCCC4)N2C2=C1C(=O)CC(C)(C)C2 (centres undefined) 35.5 µM [activator, single point]
CCOC(=O)C1=C(c2ccccc2)Nc2ncnn2C1c1ccc(Cl)cc1 (centres undefined) 2 µM [activator, partial curve, poor fit]
CC(C)Nc1nc(Nc2ccc(C(N)=O)cc2)c2sccc2n1 4.47 µM [activator, partial curve, poor fit]
COc1ccc(-c2nc(C(=O)O)cs2)cc1OC 14.1 µM [activator, full curve, poor fit]
CCOC(=O)CSc1nc(COc2ccccc2)nc2ccccc12 126 µM [activator, single point]
O=C1C(=O)N(Cc2cccnc2)C(c2cccc([N+](=O)[O-])c2)/C1=C(/O)c1ccc2c(c1)OCO2 (centres undefined) 50.1 µM [activator, partial curve, poor fit]
CNCC(O)c1ccc(O)c(O)c1 (centres undefined) 0.767 µM [activator, full curve]
Cc1ccc2c(c1)c1c3n2CCCN(Cc2ccccc2)C3CCC1 (centres undefined) 1.12 µM [activator, full curve, poor fit]
O=[N+]([O-])c1ccc(Cl)c(C2Nc3cccc4cccc(c34)N2)c1 39.8 µM [activator, single point]
CC(=O)Nc1ccc(NS(C)(=O)=O)cc1 15.8 µM [activator, full curve]
O=C(NN1CCOCC1)c1cn(-c2ccccc2)nc1-c1cccs1 79.4 µM [activator, partial curve, poor fit]
Cc1ccc(C)c(N(CC(=O)NN=C2CCN(C)CC2)S(=O)(=O)c2ccccc2)c1 12.6 µM [activator, partial curve, poor fit]
O=C(NCc1ccc2c(c1)CCN2C(=O)c1ccc(Cl)cc1)c1ccco1 15.8 µM [activator, partial curve]
COC(=O)c1cccc(COC(=O)c2ccccc2NC(=O)c2ccco2)c1 8.91 µM [activator, partial curve, poor fit]
O=C(CCn1c2c(c3ccccc31)CCCC2)NNC(=O)c1ccccc1C(=O)O 15.8 µM [activator, single point]

activation, inconclusive:
CCOc1ccc2ccccc2c1/C=N/NC(=O)CNC(=O)Cc1ccccc1 30.7% [activator]
O=C(CCc1nnc2ccc(N3CCCCC3)nn12)NCc1ccco1 -39.1% [activator]
Cn1c(=O)n(C)c2cc(NC(=O)CSc3nc4ccccc4c(=O)[nH]3)ccc21 31% [activator]
Nn1c(SCC(=O)NCC2CCCO2)nnc1-c1ccc(OC(F)F)cc1 (centres undefined) 45.4% [activator]
COc1ccccc1NC(=O)N1CCOc2ccccc21 -94.2% [activator]
Cc1ccc(OCC(=O)Nc2ccc3c(c2)OCCO3)cc1C -31% [activator]
C/C(N)=C(/C#N)C(=O)CSc1nnc(-c2ccc(OC(F)F)cc2)o1 -44.7% [activator]
CCNc1nc(Oc2ccc(=O)[nH]n2)nc(N2CCOCC2)n1 31.1% [activator]
Clc1ccc2c(NCc3ccccn3)ccnc2c1 -71.7% [activator]
CCOc1cc(/C=C2/C(=N)N3C(=NC2=O)SN=C3S(C)(=O)=O)ccc1OC(=O)c1ccco1 40.2% [activator]
CCOC(=O)c1c(S(=O)(=O)NCC(=O)N2CCN(c3ccc(OC)cc3)CC2)c(C)n(C)c1C 52.8% [activator]
Nc1nc2ccc([N+](=O)[O-])c(N)c2s1 -33.1% [activator] [at 57.5 µM]
Cc1ccc(CNC(=O)[C@H]2O[C@@H](n3ccc(N)nc3=O)[C@H](O)[C@@H]2O)o1 33.5% [activator]
O=C(NC1=NCCS1)C1COc2ccccc2O1 (centres undefined) 30.3% [activator]
O=C(Nc1ccc(Cl)c(Cl)c1)C1CCN(C(=O)c2ccco2)CC1 -32.8% [activator]
CC(C)CCNC(=O)c1cccc(-n2cnc3cccnc32)c1 33.6% [activator]
O=C(N/N=C/c1ccco1)c1ccc(OCc2ccccc2)cc1 -61.5% [activator]
